According to article PMC12799932, “Development of a VHH that inhibits the binding of neuronal pentraxin 2 to a postsynaptic glutamate receptor, AMPAR” (The Journal of Biological Chemistry, 2025):
Results are given in words; binding and its absence hold for the method and conditions named. One block for each binder: values may come before it.

Assays:
[1] = biological target: T1, NP2 PTX (pentraxin domain of neuronal pentraxin 2) (human) (UniProt P47972); assay: mass photometry; Two^MP, 200 nM NP, 10 mM Hepes-NaOH pH 7.4, 150 mM NaCl, without CaCl2, 25 °C; both purified
T1 sequence: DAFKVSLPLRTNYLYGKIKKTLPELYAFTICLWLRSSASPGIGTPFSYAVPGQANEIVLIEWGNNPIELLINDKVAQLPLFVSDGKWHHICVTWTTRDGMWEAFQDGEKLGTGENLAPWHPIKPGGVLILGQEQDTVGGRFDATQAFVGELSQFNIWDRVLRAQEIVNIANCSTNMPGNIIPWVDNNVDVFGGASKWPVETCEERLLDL

[2] = biological target: T1, NP2 PTX (pentraxin domain of neuronal pentraxin 2) (human); assay: mass photometry; Two^MP, 200 nM NP, 10 mM Hepes-NaOH pH 7.4, 150 mM NaCl, with 3 mM CaCl2, 25 °C; both purified
[3] = biological target: T1, NP2 PTX (pentraxin domain of neuronal pentraxin 2) (human); assay: SEC; SEC profiles of the purified NP constructs (Fig. S2); Superdex 200, 10 mM Hepes-NaOH pH 7.4, 150 mM NaCl, 4 °C; both purified
[4] = biological target: NP1 PTX (pentraxin domain of neuronal pentraxin 1) (human) (UniProt Q15818); assay: as above
[5] = biological target: NPR PTX (pentraxin domain of neuronal pentraxin receptor) (human) (UniProt O95502); assay: as above

binding [1]: no binding (tested: 200 nM)
binding [2]: no binding (tested: 200 nM)
binding [3]: no binding
B1: NP2 PTX (pentraxin domain of neuronal pentraxin 2) (domain or fragment, human)
chain: DAFKVSLPLRTNYLYGKIKKTLPELYAFTICLWLRSSASPGIGTPFSYAVPGQANEIVLIEWGNNPIELLINDKVAQLPLFVSDGKWHHICVTWTTRDGMWEAFQDGEKLGTGENLAPWHPIKPGGVLILGQEQDTVGGRFDATQAFVGELSQFNIWDRVLRAQEIVNIANCSTNMPGNIIPWVDNNVDVFGGASKWPVETCEERLLDL
notes: neuronal pentraxin 2 (NP2, Nptx2), human, pentraxin (PTX) domain; also called NP2 PTX WT; PTX domain of NP2; source: Expi293 cells, secreted, purified (Ni-NTA, SEC)

binding [4]: no binding
B2: NP1 PTX (pentraxin domain of neuronal pentraxin 1) (domain or fragment, UniProt Q15818 226-428)
chain: DKFQLTFPLRTNYMYAKVKKSLPEMYAFTVCMWLKSSATPGVGTPFSYAVPGQANELVLIEWGNNPMEILINDKVAKLPFVINDGKWHHICVTWTTRDGVWEAYQDGTQGGSGENLAPYHPIKPQGVLVLGQEQDTLGGGFDATQAFVGELAHFNIWDRKLTPGEVYNLATCSTKALSGNVIAWAESHIEIYGGATKWTFEAC

binding [5]: no binding
B3: NPR PTX (pentraxin domain of neuronal pentraxin receptor) (domain or fragment, UniProt O95502 292-494)
chain: DAFKISIPIRNNYMYARVRKALPELYAFTACMWLRSRSSGTGQGTPFSYSVPGQANEIVLLEAGHEPMELLINDKVAQLPLSLKDNGWHHICIAWTTRDGLWSAYQDGELQGSGENLAAWHPIKPHGILILGQEQDTLGGRFDATQAFVGDIAQFNLWDHALTPAQVLGIANCTAPLLGNVLPWEDKLVEAFGGATKAAFDVC
